PubChem BioAssay AID686937, Drosophila RNAi Screening Center, 2013

Test: 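Genes in the fly needed for secretion of protein constitutively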 (primary screen)
Cells: Drosophila S2 cells expressing secreted horseradish peroxidase
Reagent: long dsRNA against Drosophila genes
Time to read-out: about 5.5 days (5 days dsRNA, then 12 h reporter induction)
Treatment: reporter expression induced after 5 days of dsRNA, read 12 h later; inducer not stated
Measured: 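Chemiluminescent measurement of peroxidase in the medium 12 h after reporter induction, following 5 days of dsRNA, given as a z-score per plate; higher means more secretion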
Direction: z-score: higher = more reporter secreted into medium
The screen tested about 23,000 reagents; this is a random part of those that have a named target and a result. 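Reduced-secretion tags in replicate 1 do not always agree with the z-scores; no criterion for assigning the tags was given.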 Reagents against one gene are numbered here. A plus sign joins genes that one reagent is predicted to hit. Further read-outs or replicates are left out here. Not stated in the record: the amount of reagent.

z-score, replicate 1, by gene and reagent
CG32643 (GeneID 318138): #1 0.33
CG6928 (GeneID 39367): #1 0.27
Abi (GeneID 41718): #1 0.06
Jhedup (GeneID 36779): #1 0.4
LIMK1 (GeneID 32207): #1 0.3
Unc50 (GeneID 41029): #1 -0.35
CG30065 (GeneID 246431): #1 0.58
dpr6 (GeneID 50296): #1 -4.28; #2 0.41; #3 0.76
lqfR (GeneID 42632): #1 -0.4; #2 0.28
CR31032 (GeneID 5740822): #1 -0.25
Elp3 (GeneID 33649): #1 -0.48
CG14696 (GeneID 41317): #1 0.1
scrt (GeneID 38469): #1 -2.52
CG4830 (GeneID 41477): #1 0.67
CG12316 (GeneID 39650): #1 0.36
CG11327 (GeneID 33940): #1 0.16
CG13337 (GeneID 36518): #1 0.36
CG13133 (GeneID 34342): #1 -0.17
CG33093 (GeneID 42654): #1 -1.04
Pi4KIIalpha (GeneID 40670): #1 0.27; #2 0.71
CG15152 (GeneID 35082): #1 0.35
EMC5 (GeneID 35159): #1 -0.14
CG33777 (GeneID 3772311): #1 0.04
exp (GeneID 36276): #1 -0.59
CG32107 (GeneID 317856): #1 0.41
p120ctn (GeneID 3355143): #1 0.41
CG32572 (GeneID 32657): #1 0.31; #2 0.13
ttm50 (GeneID 31266): #1 0.39
betaTub60D (GeneID 37888): #1 0.07; #2 -0.91
CG14370 (GeneID 41659): #1 0.35
CG13073 (GeneID 39773): #1 0.32
CG43707 (GeneID 33601): #1 0.02; #2 0.31; #3 0.93
Pax (GeneID 35215): #1 0.44; #2 0.63; #3 0.06
Ir94h (GeneID 42769): #1 0.01
CG31997 (GeneID 319064): #1 0.59
Lsp2 (GeneID 45326): #1 -0.01; #2 0.04
Idh (GeneID 44291): #1 0.1
Ntl (GeneID 34046): #1 0.76
Tao (GeneID 32948): #1 0.1; #2 0.69; #3 -0.58
Nup37 (GeneID 43040): #1 0.2
RPA1 (GeneID 40972): #1 0.18
CG10874 (GeneID 33394): #1 0.27
CG17660 (GeneID 33347): #1 0.36
CG32249 (GeneID 317939): #1 0.49; #2 0.42; #3 -0.34
Obp19b (GeneID 33038): #1 -0.35
CG15471 (GeneID 31412): #1 0.29
CG14000 + bchs: #1 0.21
CG42376 + cin: #1 0.25
CheB74a (GeneID 3772073): #1 0.14
COX6B (GeneID 32989): #1 -0.08
CG31122 (GeneID 42221): #1 -0.03; #2 0.48
Gem4b + Gem4c: #1 0.38
mth (GeneID 38058): #1 0.33
robo3 (GeneID 33314): #1 0.34; #2 -0.18; #3 0.29
tra (GeneID 39849): #1 0.26
RnpS1 (GeneID 41147): #1 0.46
CG11396 (GeneID 40296): #1 0.55
Ugt35A1 (GeneID 41334): #1 0.28
CG8003 (GeneID 39210): #1 0.51
CG5157 (GeneID 39771): #1 0.11
ND-B18 (GeneID 32434): #1 -0.09
Fcp1 (GeneID 37925): #1 -0.06
CG42869 + Sfp93F: #1 0.3
dlp (GeneID 39596): #1 -0.46; #2 0.44

Targets above whose target name begins with I or i (2):
z-score, replicate 1, by gene and reagent
Ir94h (GeneID 42769): #1 0.01
Idh (GeneID 44291): #1 0.1
